In US20210329918A1, “AQUEOUS COMPOSITIONS OF TOPRAMEZONE” (BASF SE, priority 2018, published 2021):
At least one read-out could not be matched to a standard name with certainty.

Test: Solubilization of topramezone in aqueous solution of pH 6.5 to 7.5
Format: physicochemical
Settings: aqueous solution having a pH of from 6.5 to 7.5 when measured at 25° C.

Cc1c(C(=O)c2cnn(C)c2O)ccc(S(C)(=O)=O)c1C1=NOCC1 [topramezone, 4-[3-(4,5-dihydro-1,2-oxazol-3-yl)-2-methyl-4-methylsulfonylbenzoyl]-2-methyl-1H-pyrazol-3-one]
solubilization in aqueous solution: readily solubilizes
